This note sets out measurements from PMC10681309.

For one test, the target named is T1, full-length GST-MDA5 (UniProt Q9BYX4).
T1 sequence: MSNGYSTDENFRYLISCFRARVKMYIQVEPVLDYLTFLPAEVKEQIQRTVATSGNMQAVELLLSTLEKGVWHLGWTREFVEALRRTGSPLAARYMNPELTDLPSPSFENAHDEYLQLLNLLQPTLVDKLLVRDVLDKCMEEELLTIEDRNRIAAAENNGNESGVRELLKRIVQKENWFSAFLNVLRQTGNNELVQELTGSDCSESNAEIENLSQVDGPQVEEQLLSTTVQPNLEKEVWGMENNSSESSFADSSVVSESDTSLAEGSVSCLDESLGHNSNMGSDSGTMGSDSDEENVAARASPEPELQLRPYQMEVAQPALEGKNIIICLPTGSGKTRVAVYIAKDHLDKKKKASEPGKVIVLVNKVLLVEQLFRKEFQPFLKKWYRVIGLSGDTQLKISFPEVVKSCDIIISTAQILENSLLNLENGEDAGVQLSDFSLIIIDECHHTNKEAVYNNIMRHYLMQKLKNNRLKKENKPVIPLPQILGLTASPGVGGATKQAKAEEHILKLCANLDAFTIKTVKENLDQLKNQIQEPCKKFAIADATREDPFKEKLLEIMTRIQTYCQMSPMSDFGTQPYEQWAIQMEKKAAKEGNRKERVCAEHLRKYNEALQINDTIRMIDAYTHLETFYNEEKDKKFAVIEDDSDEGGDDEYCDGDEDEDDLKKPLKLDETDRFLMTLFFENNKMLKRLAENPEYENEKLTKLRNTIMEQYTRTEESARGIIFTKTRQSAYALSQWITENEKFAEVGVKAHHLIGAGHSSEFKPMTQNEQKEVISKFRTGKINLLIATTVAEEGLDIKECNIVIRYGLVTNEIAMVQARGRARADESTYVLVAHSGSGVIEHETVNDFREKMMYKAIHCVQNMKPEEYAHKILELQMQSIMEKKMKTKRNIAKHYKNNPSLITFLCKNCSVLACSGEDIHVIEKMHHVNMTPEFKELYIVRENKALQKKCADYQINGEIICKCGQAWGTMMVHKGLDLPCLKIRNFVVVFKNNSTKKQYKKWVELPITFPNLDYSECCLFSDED
The experiment in a line: co-IP.

Test [1] concerns the target T2, GST-MDA5 (purified from E. coli) (UniProt Q9BYX4).
T2 sequence: T1 sequence
The experiment in a line: pull-down; both purified.

No constants are given. Whether binding was seen depends on the method and setting. For some assays here: In cells and extracts the contact can be indirect. Some results given as binding are weak or reduced against the parent protein; the word gives no strength. Tags and fused reporters may be left off the sequences shown.

As to “GFP-nsp8 (SARS-CoV-2 nonstructural protein 8) (from UniProt P0DTD1 3943-4140)”, the binding entry with full-length GST-MDA5 was “binds”. For the substance “Flag-nsp8 (SARS-CoV-2 nonstructural protein 8) (from UniProt P0DTD1 3943-4140)”, the binding entry in test [1] is “binds”.
